This is an account of results in ChEMBL document CHEMBL2406983, “Synthesis and the 5-HT6 receptor antagonistic effect of 3-arylsulfonylamino-5,6-dihydro-6-substituted pyrazolo[3,4]pyridinones for neuropathic pain treatment” (Bioorg Med Chem Lett, 2013).

Sequences of proteins named here, by UniProt entry; tags and fusion partners are left off.
UniProt P50406, whole entry: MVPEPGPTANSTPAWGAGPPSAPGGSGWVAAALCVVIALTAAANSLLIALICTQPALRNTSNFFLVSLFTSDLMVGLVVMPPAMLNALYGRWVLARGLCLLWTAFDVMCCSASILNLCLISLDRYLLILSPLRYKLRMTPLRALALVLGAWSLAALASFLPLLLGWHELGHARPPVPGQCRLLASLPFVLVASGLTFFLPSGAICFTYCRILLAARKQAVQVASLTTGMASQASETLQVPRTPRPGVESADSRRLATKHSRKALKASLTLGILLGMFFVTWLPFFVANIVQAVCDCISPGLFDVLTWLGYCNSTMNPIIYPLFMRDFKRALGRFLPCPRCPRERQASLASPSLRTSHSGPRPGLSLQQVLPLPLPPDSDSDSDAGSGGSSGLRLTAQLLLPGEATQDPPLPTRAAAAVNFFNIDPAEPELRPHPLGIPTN

In this experiment the target is 5-hydroxytryptamine receptor 6 (Homo sapiens, UniProt P50406). In words: Antagonist activity at human 5-HT6 receptor expressed in human HeLa cells assessed as inhibition of 5-HT-induced cAMP accumulation pretreated for 10 mins before 5-HT addition measured after 30 mins. It counts as functional, cell-based. The gist of the method: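 HeLa cells stably expressing human 5-HT6 receptor, grown at 37 °C in 5% CO2/95% air, suspended in PBS with 2 mM IBMX. Compound pretreatment 10 min, then 100 nM 5-HT stimulation for 30 min. cAMP measured by HTRF (d2-labeled cAMP plus cryptate anti-cAMP antibody, 1 h at room temperature), excitation 314 nm, emission 668 and 620 nm. Single-point inhibition read at […].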
A general note: Changes in cAMP serve as a functional read-out for many G protein-coupled receptors.

The term IC50 denotes the concentration that gives 50% inhibition.

Regarding `COc1ccc(NS(=O)(=O)c2ccc(I)cc2)cc1N1CCN(C)CC1`, the IC50 was found to be 19 nM.
